{"source": "PubChem BioAssay AID1224828 | NIAID | 2016", "purpose": "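Knock-downs that increase or decrease LPS-induced p65 nuclear translocation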 (primary screen)", "cells": "mouse RAW264.7 G9 macrophage reporter cells (GFP-p65, Tnf promoter-mCherry)", "reagent": "siRNA pool against mouse genes, 100 nM", "time to read-out": "2 days siRNA transfection, then 40 min LPS before fixation", "conditions": "LPS (Salmonella minnesota R595) at 10 ng/ml", "read-out": "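Imaged p65 nuclear translocation ratio, normalised to the plate median, converted to robust z-scores and averaged across two replicates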", "direction": "p65 translocation robust z-score: higher = more nuclear NF-kappaB p65 after LPS than the plate median; nuclear/cytoplasmic p65 ratio: higher = more nuclear NF-kappaB p65", "rule for the call": "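Active if robust z is above 3.3 (negative regulators) or below -1.56, the Tlr4 control median (positive regulators); activity score 50 or more; control wells not called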", "meaning of the calls": "active = hit (p65 shift raised or lowered); inactive = no clear change", "note": "Here is one part, drawn at random, of about 17,000 reagents tested. Of all reagents, 762 (4.5%) got an active call. 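Active calls include both raised and lowered p65 entry, mostly lowered; wells with fewer than 50 cells lack a z-score.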 The raw values are shown without normalisation. A reagent listed more than once was tested more than once; the source does not tell the runs apart. Reagent sequences are not shown."}
{"target": "A830018L16Rik", "p65 translocation robust z-score": 3.16, "nuclear/cytoplasmic p65 ratio, rep 1": 1.91, "nuclear/cytoplasmic p65 ratio, rep 2": 1.84, "low cell count flag": "enough cells to score", "Call": "inactive"}
{"target": "Bloc1s3", "p65 translocation robust z-score": 0.43, "nuclear/cytoplasmic p65 ratio, rep 1": 1.45, "nuclear/cytoplasmic p65 ratio, rep 2": 1.58, "low cell count flag": "enough cells to score", "Call": "inactive"}
{"target": "Hdac5", "p65 translocation robust z-score": -1.78, "nuclear/cytoplasmic p65 ratio, rep 1": 1.15, "nuclear/cytoplasmic p65 ratio, rep 2": 1.19, "low cell count flag": "enough cells to score", "Call": "active"}
{"target": "Cd177", "p65 translocation robust z-score": -1.57, "nuclear/cytoplasmic p65 ratio, rep 1": 1.15, "nuclear/cytoplasmic p65 ratio, rep 2": 1.25, "low cell count flag": "enough cells to score", "Call": "active"}
{"target": "Camk4", "nuclear/cytoplasmic p65 ratio, rep 1": 1.28, "nuclear/cytoplasmic p65 ratio, rep 2": 1.37, "low cell count flag": "fewer than 50 cells per well; well left out of scoring", "Call": "inactive"}
{"target": "Camk4", "p65 translocation robust z-score": -0.12, "nuclear/cytoplasmic p65 ratio, rep 1": 1.69, "nuclear/cytoplasmic p65 ratio, rep 2": 1.36, "low cell count flag": "enough cells to score", "Call": "inactive"}
{"target": "Cfap52", "nuclear/cytoplasmic p65 ratio, rep 1": 1.4, "nuclear/cytoplasmic p65 ratio, rep 2": 1.12, "low cell count flag": "fewer than 50 cells per well; well left out of scoring", "Call": "inactive"}
{"target": "Plpp2", "p65 translocation robust z-score": -1.4, "nuclear/cytoplasmic p65 ratio, rep 1": 1.26, "nuclear/cytoplasmic p65 ratio, rep 2": 1.27, "low cell count flag": "enough cells to score", "Call": "inactive"}
{"target": "4933409K07Rik", "nuclear/cytoplasmic p65 ratio, rep 1": 1.48, "nuclear/cytoplasmic p65 ratio, rep 2": 1.68, "low cell count flag": "fewer than 50 cells per well; well left out of scoring", "Call": "inactive"}
{"target": "Casp9", "p65 translocation robust z-score": 0.91, "nuclear/cytoplasmic p65 ratio, rep 1": 1.67, "nuclear/cytoplasmic p65 ratio, rep 2": 1.82, "low cell count flag": "enough cells to score", "Call": "inactive"}
{"target": "Eno2", "p65 translocation robust z-score": 0.06, "nuclear/cytoplasmic p65 ratio, rep 1": 1.54, "nuclear/cytoplasmic p65 ratio, rep 2": 1.32, "low cell count flag": "enough cells to score", "Call": "inactive"}
{"target": "Catsperg2", "p65 translocation robust z-score": 0.91, "nuclear/cytoplasmic p65 ratio, rep 1": 1.51, "nuclear/cytoplasmic p65 ratio, rep 2": 1.33, "low cell count flag": "enough cells to score", "Call": "inactive"}
{"target": "Hikeshi", "p65 translocation robust z-score": 1.11, "nuclear/cytoplasmic p65 ratio, rep 1": 1.55, "nuclear/cytoplasmic p65 ratio, rep 2": 1.74, "low cell count flag": "enough cells to score", "Call": "inactive"}
{"target": "Eln", "p65 translocation robust z-score": 0, "nuclear/cytoplasmic p65 ratio, rep 1": 1.46, "nuclear/cytoplasmic p65 ratio, rep 2": 1.37, "low cell count flag": "enough cells to score", "Call": "inactive"}
{"target": "Fem1al", "nuclear/cytoplasmic p65 ratio, rep 1": 1.09, "nuclear/cytoplasmic p65 ratio, rep 2": 1, "low cell count flag": "fewer than 50 cells per well; well left out of scoring", "Call": "inactive"}
{"target": "Wwc2", "p65 translocation robust z-score": -0.28, "nuclear/cytoplasmic p65 ratio, rep 1": 1.48, "nuclear/cytoplasmic p65 ratio, rep 2": 1.56, "low cell count flag": "enough cells to score", "Call": "inactive"}
{"target": "Vrk1", "nuclear/cytoplasmic p65 ratio, rep 1": 1.65, "nuclear/cytoplasmic p65 ratio, rep 2": 1.57, "low cell count flag": "fewer than 50 cells per well; well left out of scoring", "Call": "inactive"}
{"target": "Tut1", "nuclear/cytoplasmic p65 ratio, rep 1": 1.32, "nuclear/cytoplasmic p65 ratio, rep 2": 1.15, "low cell count flag": "fewer than 50 cells per well; well left out of scoring", "Call": "inactive"}
{"target": "Vim", "p65 translocation robust z-score": 0.2, "nuclear/cytoplasmic p65 ratio, rep 1": 1.57, "nuclear/cytoplasmic p65 ratio, rep 2": 1.5, "low cell count flag": "enough cells to score", "Call": "inactive"}
{"target": "Golm2", "p65 translocation robust z-score": -0.24, "nuclear/cytoplasmic p65 ratio, rep 1": 1.58, "nuclear/cytoplasmic p65 ratio, rep 2": 1.69, "low cell count flag": "enough cells to score", "Call": "inactive"}
{"target": "Cdk9", "p65 translocation robust z-score": -0.76, "nuclear/cytoplasmic p65 ratio, rep 1": 1.52, "nuclear/cytoplasmic p65 ratio, rep 2": 1.33, "low cell count flag": "enough cells to score", "Call": "inactive"}
